Source: the supplement of paper PMC8256030
Values joined by “and” are separate entries in the source; they are usually repeats but may differ in a detail not shown here. Identical values can stand only once. Counter-ions that a name gives are not always drawn. This is one part of the list. Single values are uncertain here, since repeats match poorly.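 HEK293T cells were given each compound shortly before transfection with a reporter in which red mCherry is followed by the SARS-CoV-2 frameshift element and then GFP in the −1 frame, so GFP appears only after frameshifting.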

Tests used:
HEK293T = assay: percent viability (nuclei count) relative to control; higher = more viable cells; conditions: 10 µM; 24 h
[1] = system: SARS-CoV-2 -1 PRF reporter mCherry-FSE-GFP(-1); assay: mCherry (red) intensity as percent of control; higher = higher upstream reporter expression; conditions: 10 µM; 24 h; HEK293T
[2] = system: SARS-CoV-2 -1 PRF reporter mCherry-FSE-GFP(-1); assay: percent effect, decrease of GFP/mCherry ratio (-1 PRF reporter) relative to controls; higher = stronger frameshift inhibition; conditions: 10 µM; 24 h; HEK293T

| SMILES | percent viability (HEK293T) | mCherry [1] | percent effect [2] |
| --- | --- | --- | --- |
| CCC[C@@H]1CC2=CC(=O)CC[C@]2(C)[C@H]2CC[C@@]3(C)[C@@H](CC[C@@]3(O)CCC(=O)O)[C@H]12 [oxprenoate] | 138% | 105% | -0.553% |
| CC1=CC(=O)N2CC(=O)N(C)c3ccc(Cl)cc3C2(c2ccccc2)O1 (stereo not given) [ketazolam] | 76.6% | 129% | 2.55% |
| O=C1CN=C(c2ccccc2)c2c(sc3c2CCCC3)N1 [bentazepam] | 39.6% | 84.1% | -6.82% |
| CC(C)c1c(CN(C)C(C)Cc2ccccc2)n(C)n(-c2ccccc2)c1=O (stereo not given) [famprofazone] | 311% | 109% | 3.71% |
| CN(C)[C@@H]1C(=O)C(C(N)=O)=C(O)[C@@]2(O)C(=O)C3=C(O)c4c(O)cccc4[C@@](C)(O)[C@H]3[C@H](O)[C@@H]12 [Oxytetracycline] | 128% | 74.7% | -5.2% |
| NC1=NCC(c2ccccc2)O1 (stereo not given) [aminorex] | 143% | 98.3% | -6.06% |
| C=CCC1(C(C)CCC)C(=O)NC(=S)NC1=O (stereo not given) | 140% | 113% | -5.58% |
| C[C@@H]1CC[C@H]2[C@@H](C)C(=O)O[C@@H]3O[C@@]4(C)CC[C@@H]1[C@]32OO4 | 201% | 112% | -1.66% |
| O=c1c2ccccc2[se]n1-c1ccccc1 [ebselen] | 235% | 77.2% | -6.71% |
| O=C1CN=C(c2ccccc2Cl)c2cc([N+](=O)[O-])ccc2N1 [clonazepam] | 323% | 136% | 11.3% |
| CN1CC[C@]23c4c5ccc(O)c4O[C@H]2C(=O)CC[C@H]3[C@H]1C5 [hydromorphone] | 130% | 114% | 2.02% |
| C[C@]12CCC(=O)C(O)=C1CC[C@@H]1[C@@H]2CC[C@]2(C)C(=O)CC[C@@H]12 | 307% | 98.9% | -3.77% |
| CCC(Br)(CC)C(=O)NC(N)=O [carbromal] | 150% | 81.6% | 2.4% |
| Nc1nc(N)nc(Nc2ccc([As]3SCC(CO)S3)cc2)n1 (stereo not given) [melarsoprol] | 148% | 176% | -19.1% |
| C=C[C@H]1CN2CC[C@H]1C[C@H]2[C@H](OC(=O)OCC)c1ccnc2ccc(OC)cc12 | 327% | 101% | -0.236% |
| CC(C)N(CCNC(=O)CN1CCCC1=O)C(C)C [pramiracetam] | 313% | 121% | 1.22% |
| CN1C[C@H](C(=O)N[C@]2(C)O[C@@]3(O)[C@@H]4CCCN4C(=O)[C@H](Cc4ccccc4)N3C2=O)C=C2c3cccc4[nH]cc(c34)C[C@H]21 | 188% | 103% | -0.954% |
| CN1[C@@H]2CC[C@H]1C[C@@H](OC(=O)C(CO)c1ccccc1)C2 (stereo not given in full) [Atropine] | 83% | 86.4% | -6.79% |
| C[N+]1(C)CCCCC1COC(=O)C(O)(c1ccccc1)c1ccccc1 (stereo not given) [bevonium] | 373% | 72.1% | -1.92% |
| COP(=S)(OC)Oc1ccc(SC)c(C)c1 | 358% | 90.4% | 0.465% |
| CCOP(=S)(OCC)Oc1cc(C)nc(C(C)C)n1 [dimpylate] | 180% | 102% | 3.79% |
| CC(=O)[C@H]1CC[C@H]2[C@@H]3CC[C@H]4C[C@H](O)CC[C@]4(C)[C@H]3C(=O)C[C@]12C [5A-Pregnan-3A-ol-11,20-dione] | 150% | 108% | -1.76% |

| SMILES | percent viability (HEK293T) | mCherry [1] | percent effect [2] |
| --- | --- | --- | --- |
| COc1cc2c(c(OC)c1OC)-c1ccc(OC)c(=O)cc1[C@@H](NC(C)=O)CC2 | 11.9% | 137% | -8.67% |
| CN1c2ccccc2C(NCCCCCCC(=O)O)c2ccc(Cl)cc2S1(=O)=O (stereo not given) [tianeptine] | 105% | 106% | -2.69% |
| C1CCc2nnnn2CC1 [pentetrazol] | 150% | 102% | -11.8% |
| C=CCN1C[C@H](C(=O)N(CCCN(C)C)C(=O)NCC)C[C@@H]2c3cccc4[nH]cc(c34)C[C@H]21 [cabergoline] | 166% | 67% | 0.995% |
| CCN(CC)CCN1C(=O)CN=C(c2ccccc2F)c2cc(Cl)ccc21 [flurazepam] | 120% | 104% | 1.46% |
| O=C(Nc1ccc(Br)cc1)c1cc(Br)cc(Br)c1O [tribromsalan] | 155% | 61.7% | -7.59% |
| O=C1CN=C(c2ccccc2Cl)c2cc(Cl)ccc2N1 [delorazepam] | 81.5% | 119% | -0.563% |
| CO[C@@]12CC[C@@]3(C[C@@H]1[C@](C)(O)C(C)(C)C)[C@H]1Cc4ccc(O)c5c4[C@@]3(CCN1CC1CC1)[C@H]2O5 [Buprenex] | 256% | 80% | -0.147% |
| CC[C@@H](CO)NC(=O)[C@@H]1C=C2c3cccc4c3c(cn4C)C[C@H]2N(C)C1 | 329% | 99.1% | 0.211% |
| CNCC(C)c1ccccc1 (stereo not given) [phenpromethamine] | 273% | 107% | -2.6% |
| CCC(C)C1(CC)C(=O)NC(=O)NC1=O (stereo not given) [secbutabarbital] | 268% | 85.6% | -4.57% |
| CN[C@@H](C)Cc1ccccc1 [metamfetamine] | 37.4% | 97.8% | -0.746% |
| C=CCC1(C(C)C)C(=O)NC(=O)NC1=O [aprobarbital] | 343% | 94.7% | -3.63% |
| O=C1C=C2C=C[C@@H]3C[C@@]2(O1)[C@H]1CCCCN31 [securinine] | 26.1% | 20% | -2.46% |
| CCCC(=O)OCC[N+](C)(C)C [Butyrylcholine] | 225% | 88.6% | 2.4% |
| CC(C)NCC(O)c1ccc(N)c(C#N)c1 (stereo not given) [cimaterol] | 189% | 88.2% | 0.634% |
| O=C1CN=C(c2ccccc2)c2cc(Cl)ccc2N1 [nordazepam] | 288% | 91.5% | -1.52% |
| C#CCN(C)[C@H](C)Cc1ccccc1 | 176% | 111% | -0.232% |
| CN1C[C@H](C(=O)N[C@]2(C)O[C@@]3(O)[C@@H]4CCCN4C(=O)[C@H](Cc4ccccc4)N3C2=O)C[C@@H]2c3cccc4[nH]cc(c34)C[C@H]21 [Dihydroergotamine mesylate] | 263% | 76.7% | -4.83% |
| CC[C@@H](c1cccc(O)c1)[C@@H](C)CN(C)C [tapentadol] | 102% and 84.6% | 94.8% and 102% | -2.82% and -3.19% |
| NCCc1cc(O)c(O)cc1O [oxidopamine] | 133% | 111% | -7.84% |
| COc1ccc(C(=O)c2c(C)n(CCN3CCOCC3)c3ccccc23)cc1 [pravadoline] | 137% | 98.8% | -1.36% |

| SMILES | percent viability (HEK293T) | mCherry [1] | percent effect [2] |
| --- | --- | --- | --- |
| CC(N)Cc1ccccc1 (stereo not given) [amfetamine] | 176% | 113% | 0.397% |
| CCOc1cc(C=O)ccc1O | 342% | 88.7% | -0.253% |
| CC1C=CC=CCCC=CC=CC=CC=CC(OC2OC(C)C(O)C(N)C2O)CC2OC(O)(CC(O)C(O)CCC(O)CC(O)CC(O)CC(=O)OC(C)C(C)C1O)CC(O)C2C(=O)O (stereo not given) [Nystatin] | 59.8% | 74.3% | -1.04% |
| CC[C@@H](C(=O)[C@@H](C)[C@@H](O)[C@H](C)[C@@H]1O[C@@H]([C@@H](CC)C(=O)O)CC[C@@H]1C)[C@H]1O[C@]2(C=C[C@@H](O)[C@]3(CC[C@@](C)([C@H]4CC[C@](O)(CC)[C@H](C)O4)O3)O2)[C@H](C)C[C@@H]1C | 130% | 98.4% | -14.6% |
| Cc1nnc2n1-c1ccc(Cl)cc1C(c1ccccc1Cl)=NC2 [triazolam] | 332% | 92.4% | -5.49% |
| CN(C(=O)CNC(=O)[C@@H](N)CCCCN)c1ccc(Cl)cc1C(=O)c1ccccc1 [avizafone] | 295% | 76.6% | 0.365% |
| N[C@@H]1C[C@H]1c1ccccc1.N[C@H]1C[C@@H]1c1ccccc1 | 118% | 118% | -12.1% |
| O=C(C[S+]([O-])C(c1ccccc1)c1ccccc1)NO (stereo not given) [adrafinil] | 260% | 93.6% | -4.79% |
| N.N.[Cl][Pt][Cl] [Cisplatin] | 312% | 106% | -7.35% |
| CC(O)CN1CCN(CC(=O)[O-])CCN(CC(=O)[O-])CCN(CC(=O)[O-])CC1.[Gd+3] (stereo not given) [gadoteridol] | 210% | 123% | 0.909% |
| CCCN1CCO[C@@H]2c3cc(O)ccc3CC[C@H]21 [naxagolide] | 370% | 49.9% | -0.354% |
| CN(C)CCc1c[nH]c2cccc(OP(=O)(O)O)c12 [psilocybine] | 21.7% | 91.4% | 0.231% |
| C[CH2][Hg][S]c1ccccc1C(=O)[O-].[Na+] [thiomersal] | 6.15% | 14% | -14.1% |
| CC(Cc1ccc(O)cc1)NCC(O)c1cc(O)cc(O)c1 (stereo not given) [fenoterol] | 125% | 108% | -9.17% |
| CN1C(=O)NC(=O)C(C)(C2=CCCCC2)C1=O (stereo not given) [hexobarbital] | 286% | 86.5% | -1.04% |
| CCNC1=NC(=O)C(c2ccccc2)O1 (stereo not given) [fenozolone] | 238% | 69% | -1.06% |
| CC1(C)C(C=C(Cl)Cl)C1C(=O)OC(C#N)c1cccc(Oc2ccccc2)c1 (stereo not given) | 343% | 107% | 2.01% |
| C/C(=C\c1csc(C)n1)[C@@H]1C[C@@H]2O[C@]2(C)CCC[C@H](C)[C@H](O)[C@@H](C)C(=O)C(C)(C)[C@@H](O)CC(=O)O1 [patupilone] | 26% | 145% | -11.5% |
| CN(C)C1C(=O)C(C(N)=O)=C(O)C2(O)C(=O)C3=C(O)c4c(O)cccc4C(C)(O)C3CC12 (stereo not given) | 131% | 107% | -6.94% |
| C[C@@H]1CN(C2CCC(C#N)(c3ccc(F)cc3)CC2)CC[C@]1(C(=O)O)c1ccccc1 (stereo not given in full) [Levocabastine·HCl] | 220% | 86.4% | -2.82% |
| CN(C)[C@@H]1C(=O)C(C(N)=O)=C(O)[C@@]2(O)C(=O)C3=C(O)c4c(O)cccc4[C@@](C)(O)[C@H]3[C@H](O)[C@@H]12 | 126% | 96% | -2.92% |
